From PMC6482174, “Fragment-based screening identifies inhibitors of ATPase activity and of hexamer formation of Cagα from the Helicobacter pylori type IV secretion system” (Scientific Reports, 2019)
“And” between values parts separate entries of the source, which are not always exact repeats. Equal values may be shown once. Read-outs that look alike come from different tables or passages of the source.

Assays:
Cagα hexamer = assay: Analytical gel filtration (Superdex 200); design: species or system Helicobacter pylori; details: for Effect on the Cagα hexamer: gel filtration and EM
Cagα = details: apoprotein Tm 37 °C
Cagα oligomers = assay: Chemical cross-linking with DSS, SDS-PAGE and western blot; design: species or system Helicobacter pylori; details: with MgCl2
[1] = Cagα pre-incubated with 2 mM molecule, apoprotein 1.74 ml
[2] = Cagα pre-incubated with 2 mM molecule 30 min, apoprotein 244 kDa

Nc1ncnc2c1ncn2[C@@H]1O[C@H](CO[P@](=O)(O)O[P@](=O)(O)O[P@@](=O)(O)S)[C@@H](O)[C@H]1O [ATP-γ-S, reference compound]
Elution Volume, single peak (Cagα hexamer; [1]): 1.74 mL | MW, single peak (Cagα hexamer; Cagα pre-incubated with 2 mM molecule, apoprotein 244.1 kDa): 244.1 kDa | Effect on the Cagα hexamer (Cagα hexamer): does not dissociate the hexamer | Melting temperature (Tm) of Cagα (Cagα; Cagα with MgCl2 and the nucleotide, nucleotides 5 mM): 60 °C | Formation of higher molecular mass cross-linking products (Cagα oligomers): reduced amount of higher molecular mass complexes

Nc1ncnc2c1ncn2[C@@H]1O[C@H](COP(=O)(O)OP(=O)(O)O)[C@@H](O)[C@H]1O [ADP]
Formation of higher molecular mass cross-linking products (Cagα oligomers): increased amounts of higher molecular mass products

[Cl-].[Cl-].[Mg+2] [MgCl2]
Melting temperature (Tm) of Cagα (Cagα; Cagα and metal cofactor MgCl2): 42 °C

O=C(O)c1ccc(Oc2ccccn2)cc1 [1G2]
Apparent molecular mass, peak A (Cagα hexamer; [2]): 175 kDa and 175.5 kDa | Apparent molecular mass, peak B (Cagα hexamer; [2]): 54 kDa | Elution Volume, peak A (Cagα hexamer; [1]): 1.83 mL | Elution Volume, peak B (Cagα hexamer; [1]): 2.14 mL | Effect on the Cagα hexamer (Cagα hexamer): dissociates the Cagα hexamer into lower molecular mass species | Formation of higher molecular mass cross-linking products (Cagα oligomers): reduced amount of higher molecular mass complexes
